# According to patent US20020098524A1 (published 2002):
# By UniProt entry, the sequences of proteins in these tests, tags left out. Where a name states a change or a piece, a line headed by the entry shows the natural chain unless it says otherwise. Chains listed by the source or under a name are the forms on record and can include a tag or linker.
# recombinant human VEGF (P15692, form named): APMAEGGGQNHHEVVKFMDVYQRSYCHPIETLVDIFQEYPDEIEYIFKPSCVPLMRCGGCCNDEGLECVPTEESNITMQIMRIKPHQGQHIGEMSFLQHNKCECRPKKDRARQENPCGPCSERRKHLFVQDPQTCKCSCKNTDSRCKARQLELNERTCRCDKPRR
# No constants are given. Whether binding was seen depends on the method and setting. Some binding calls cover weakened binding; strength is not graded here.
# Experiments:
# [1] = molecular target: recombinant human VEGF (human) (UniProt P15692); test: conventional phage biopanning on VEGF, acid elution, 3 rounds
# [2] = molecular target: recombinant human VEGF (human) (UniProt P15692); test: phage display selection on VEGF-coated polystyrene beads after deselection on whole human blood, 2 rounds, PCR of bound phage
binding [1],binding [2],Binder
,binds,CPKADSKQC [V-16 (…)]
,binds,CPNQSHLHC [V-17 (…)]
,binds,CKMPTSKVC [V-20 (…)]
,binds,CSTTSPNMC [V-14 (…)]
,binds,CKWIVSETC [V-22 (…)]
,binds,CPNANAPSC [V-23 (…)]
,binds,CALSAPYSC [V-19 (…)]
,binds,CADRSFRYC [V-15 (…)]
,binds,CITPKRPYC [V-21 (…)]
,binds,CNVQSLPLC [V-24 (…)]
,binds,CSGSETWMC [V-18 (…)]

# More lines, now with the values behind:
Binder,binding [1],binding [2]
CAPWNLHIC [BP 87 (…)],binds,
CAPWNSHIC [BP 86 (…)],binds,
CATNPPPMC [V-13 (…)],,binds
CPLRTSHTC [V-9 (…)],,binds
CNPLHTLSC [V-11 (…)],,binds
CNLWPHFWC [BP 83 (…)],binds,
CKTNPSGSC [V-2 (…)],,binds
CHLAPSAVC [BP 04 (…)],binds,
CSLWPAFWC [BP 84 (…)],binds,
CTLHWWVTC [V-7 (…)],,binds
CTLWPTFWC [BP 82 (…)],binds,
CTLYPQFWC [BP 02 (…)],binds,
CEATPRDTC [V-10 (…)],,binds
CPVTKRVHC [V-6 (…)],,binds
CKPSSASSC [V-5 (…)],,binds
CKHSAKAEC [V-4 (…)],,binds
CSKHSQITC [V-1 (…)],,binds
CYNLYGWTC [BP 81 (…)],binds,
CSLWPHFWC [BP 85 (…)],binds,
CPYKASFYC [V-8 (…)],,binds
CPTILEWYC [BP 97 (…)],binds,
CLPSWHLRC [BP 96 (…)],binds,
CRPTGHSLC [V-3 (…)],,binds
CKHERIWSC [V-12 (…)],,binds
